Measured values reported in the supplement of paper PMC10849652.
The other results are listed elsewhere or left out.

Amino acid sequences for entries named in this document (tags omitted). A change or cut given only in a name is not applied to a line headed by its entry.
UniProt Q8N1Q1: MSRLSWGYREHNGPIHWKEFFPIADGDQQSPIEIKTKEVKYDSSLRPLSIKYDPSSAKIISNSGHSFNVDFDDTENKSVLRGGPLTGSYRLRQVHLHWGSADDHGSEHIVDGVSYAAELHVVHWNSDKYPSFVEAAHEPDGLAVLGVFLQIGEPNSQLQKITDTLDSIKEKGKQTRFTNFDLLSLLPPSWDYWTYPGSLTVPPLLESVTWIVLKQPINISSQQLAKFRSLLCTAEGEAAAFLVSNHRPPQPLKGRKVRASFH
UniProt O14523: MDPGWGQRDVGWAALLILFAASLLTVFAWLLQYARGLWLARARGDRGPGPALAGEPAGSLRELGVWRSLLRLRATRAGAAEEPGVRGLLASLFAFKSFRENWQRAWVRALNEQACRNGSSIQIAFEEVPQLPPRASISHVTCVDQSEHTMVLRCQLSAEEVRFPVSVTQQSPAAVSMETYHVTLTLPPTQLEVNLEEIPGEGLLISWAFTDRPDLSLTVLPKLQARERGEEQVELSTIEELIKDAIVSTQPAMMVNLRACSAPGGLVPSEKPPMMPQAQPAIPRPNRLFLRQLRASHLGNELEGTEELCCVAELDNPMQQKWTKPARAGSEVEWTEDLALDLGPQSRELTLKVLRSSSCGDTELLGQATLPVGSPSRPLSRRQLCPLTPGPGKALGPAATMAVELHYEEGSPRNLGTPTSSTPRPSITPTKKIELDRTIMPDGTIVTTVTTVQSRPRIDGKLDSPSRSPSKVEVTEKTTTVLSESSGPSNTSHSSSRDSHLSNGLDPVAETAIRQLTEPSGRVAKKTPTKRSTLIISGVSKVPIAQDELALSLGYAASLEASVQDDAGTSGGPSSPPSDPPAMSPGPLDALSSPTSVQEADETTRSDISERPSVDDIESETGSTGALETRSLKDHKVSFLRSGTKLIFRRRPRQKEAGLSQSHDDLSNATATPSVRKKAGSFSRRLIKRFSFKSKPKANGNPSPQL
UniProt Q9Y426: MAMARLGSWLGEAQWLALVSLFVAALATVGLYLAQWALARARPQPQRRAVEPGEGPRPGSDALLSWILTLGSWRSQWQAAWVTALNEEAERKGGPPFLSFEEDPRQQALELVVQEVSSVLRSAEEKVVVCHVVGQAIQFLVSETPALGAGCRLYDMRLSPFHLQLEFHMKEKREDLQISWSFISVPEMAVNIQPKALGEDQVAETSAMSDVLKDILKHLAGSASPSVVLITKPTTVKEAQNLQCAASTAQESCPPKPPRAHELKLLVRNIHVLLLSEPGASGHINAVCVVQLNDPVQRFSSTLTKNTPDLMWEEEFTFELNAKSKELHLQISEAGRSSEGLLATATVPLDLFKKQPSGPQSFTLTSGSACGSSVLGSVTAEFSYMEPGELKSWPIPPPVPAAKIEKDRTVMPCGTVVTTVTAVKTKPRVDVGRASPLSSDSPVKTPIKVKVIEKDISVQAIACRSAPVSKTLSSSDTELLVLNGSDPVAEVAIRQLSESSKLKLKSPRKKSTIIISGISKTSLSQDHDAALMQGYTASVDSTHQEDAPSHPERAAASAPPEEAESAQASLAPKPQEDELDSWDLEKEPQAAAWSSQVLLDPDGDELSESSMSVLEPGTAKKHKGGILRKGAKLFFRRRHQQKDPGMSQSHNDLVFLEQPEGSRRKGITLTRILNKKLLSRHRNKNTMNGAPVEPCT
UniProt Q8WUQ7: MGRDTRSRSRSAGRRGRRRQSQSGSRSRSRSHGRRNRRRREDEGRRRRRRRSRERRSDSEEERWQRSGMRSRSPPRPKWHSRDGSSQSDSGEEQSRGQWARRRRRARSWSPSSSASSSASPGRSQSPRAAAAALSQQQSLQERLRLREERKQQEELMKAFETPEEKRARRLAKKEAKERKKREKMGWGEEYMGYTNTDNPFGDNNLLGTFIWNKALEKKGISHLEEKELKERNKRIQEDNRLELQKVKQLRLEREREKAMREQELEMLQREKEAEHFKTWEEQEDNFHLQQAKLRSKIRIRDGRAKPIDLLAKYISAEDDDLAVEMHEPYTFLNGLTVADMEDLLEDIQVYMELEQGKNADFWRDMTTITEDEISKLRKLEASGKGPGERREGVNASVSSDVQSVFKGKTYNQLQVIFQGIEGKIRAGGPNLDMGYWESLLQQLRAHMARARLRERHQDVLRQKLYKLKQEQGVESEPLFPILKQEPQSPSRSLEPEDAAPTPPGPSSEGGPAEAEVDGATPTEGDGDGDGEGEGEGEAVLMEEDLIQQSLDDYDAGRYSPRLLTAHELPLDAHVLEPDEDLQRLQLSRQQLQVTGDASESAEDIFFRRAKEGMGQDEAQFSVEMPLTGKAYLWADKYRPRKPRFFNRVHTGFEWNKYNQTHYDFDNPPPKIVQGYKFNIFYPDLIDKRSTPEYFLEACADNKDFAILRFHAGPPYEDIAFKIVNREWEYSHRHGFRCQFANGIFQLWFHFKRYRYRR
UniProt Q6ZSJ8: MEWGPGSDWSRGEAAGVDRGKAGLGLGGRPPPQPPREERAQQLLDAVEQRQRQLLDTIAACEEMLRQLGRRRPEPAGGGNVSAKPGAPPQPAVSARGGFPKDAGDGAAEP
UniProt Q96EU7: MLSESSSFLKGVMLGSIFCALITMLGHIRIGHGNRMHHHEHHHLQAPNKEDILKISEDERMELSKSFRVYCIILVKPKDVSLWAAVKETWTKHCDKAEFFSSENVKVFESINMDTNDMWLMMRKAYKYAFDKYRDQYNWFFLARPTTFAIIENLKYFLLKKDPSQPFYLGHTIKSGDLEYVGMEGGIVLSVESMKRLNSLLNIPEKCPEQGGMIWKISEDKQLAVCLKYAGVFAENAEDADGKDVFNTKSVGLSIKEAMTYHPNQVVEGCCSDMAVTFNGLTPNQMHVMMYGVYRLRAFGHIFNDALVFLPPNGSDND
UniProt Q9HAS0: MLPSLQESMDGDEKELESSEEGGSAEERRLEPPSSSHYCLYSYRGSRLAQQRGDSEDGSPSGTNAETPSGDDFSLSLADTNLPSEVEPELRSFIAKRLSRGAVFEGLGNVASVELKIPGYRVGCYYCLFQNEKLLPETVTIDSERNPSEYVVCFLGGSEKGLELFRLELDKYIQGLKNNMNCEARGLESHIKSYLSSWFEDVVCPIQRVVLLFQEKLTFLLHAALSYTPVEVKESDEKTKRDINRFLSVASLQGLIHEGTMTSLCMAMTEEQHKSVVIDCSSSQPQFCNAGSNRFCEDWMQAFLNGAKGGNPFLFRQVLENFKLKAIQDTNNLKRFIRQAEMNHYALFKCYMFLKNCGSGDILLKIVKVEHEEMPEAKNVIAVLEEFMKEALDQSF
UniProt P07384: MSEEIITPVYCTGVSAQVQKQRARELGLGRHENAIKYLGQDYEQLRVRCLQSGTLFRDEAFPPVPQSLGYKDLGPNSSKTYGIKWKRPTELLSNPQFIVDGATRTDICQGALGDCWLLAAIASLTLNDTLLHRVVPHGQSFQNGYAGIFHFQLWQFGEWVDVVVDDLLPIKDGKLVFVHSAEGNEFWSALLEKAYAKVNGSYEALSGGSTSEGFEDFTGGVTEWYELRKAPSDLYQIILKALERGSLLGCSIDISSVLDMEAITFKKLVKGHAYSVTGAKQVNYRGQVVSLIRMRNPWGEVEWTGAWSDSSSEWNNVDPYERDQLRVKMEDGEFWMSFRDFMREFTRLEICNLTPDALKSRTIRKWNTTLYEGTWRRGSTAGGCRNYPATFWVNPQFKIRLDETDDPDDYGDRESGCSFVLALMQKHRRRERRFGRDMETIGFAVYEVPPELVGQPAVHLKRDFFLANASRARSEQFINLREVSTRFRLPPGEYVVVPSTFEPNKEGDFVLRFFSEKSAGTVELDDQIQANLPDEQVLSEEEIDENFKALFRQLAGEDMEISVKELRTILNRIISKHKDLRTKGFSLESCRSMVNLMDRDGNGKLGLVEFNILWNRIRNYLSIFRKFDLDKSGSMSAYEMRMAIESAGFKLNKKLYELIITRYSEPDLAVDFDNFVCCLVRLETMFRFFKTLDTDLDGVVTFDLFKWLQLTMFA
UniProt Q9H3H3: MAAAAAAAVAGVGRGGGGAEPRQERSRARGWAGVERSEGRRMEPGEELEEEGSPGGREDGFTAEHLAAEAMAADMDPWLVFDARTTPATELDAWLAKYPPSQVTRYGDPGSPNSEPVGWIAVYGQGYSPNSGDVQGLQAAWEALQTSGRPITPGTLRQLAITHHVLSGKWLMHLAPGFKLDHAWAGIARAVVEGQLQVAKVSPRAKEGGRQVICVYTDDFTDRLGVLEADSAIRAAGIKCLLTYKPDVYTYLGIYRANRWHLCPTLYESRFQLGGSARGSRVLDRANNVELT
UniProt O95873: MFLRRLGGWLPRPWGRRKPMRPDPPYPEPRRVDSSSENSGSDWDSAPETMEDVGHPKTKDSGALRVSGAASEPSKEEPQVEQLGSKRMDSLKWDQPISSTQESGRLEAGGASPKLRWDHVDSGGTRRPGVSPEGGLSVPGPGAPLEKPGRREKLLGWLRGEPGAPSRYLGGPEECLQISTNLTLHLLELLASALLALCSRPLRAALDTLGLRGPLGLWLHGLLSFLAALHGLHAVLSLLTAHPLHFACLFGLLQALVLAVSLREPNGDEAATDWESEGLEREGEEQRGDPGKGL
UniProt Q9Y2V2: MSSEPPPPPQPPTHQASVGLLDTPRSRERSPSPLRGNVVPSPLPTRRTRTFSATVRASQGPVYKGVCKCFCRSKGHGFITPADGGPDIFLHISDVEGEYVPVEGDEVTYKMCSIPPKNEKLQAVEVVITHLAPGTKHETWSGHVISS
UniProt Q96RR4, whole entry, looked up: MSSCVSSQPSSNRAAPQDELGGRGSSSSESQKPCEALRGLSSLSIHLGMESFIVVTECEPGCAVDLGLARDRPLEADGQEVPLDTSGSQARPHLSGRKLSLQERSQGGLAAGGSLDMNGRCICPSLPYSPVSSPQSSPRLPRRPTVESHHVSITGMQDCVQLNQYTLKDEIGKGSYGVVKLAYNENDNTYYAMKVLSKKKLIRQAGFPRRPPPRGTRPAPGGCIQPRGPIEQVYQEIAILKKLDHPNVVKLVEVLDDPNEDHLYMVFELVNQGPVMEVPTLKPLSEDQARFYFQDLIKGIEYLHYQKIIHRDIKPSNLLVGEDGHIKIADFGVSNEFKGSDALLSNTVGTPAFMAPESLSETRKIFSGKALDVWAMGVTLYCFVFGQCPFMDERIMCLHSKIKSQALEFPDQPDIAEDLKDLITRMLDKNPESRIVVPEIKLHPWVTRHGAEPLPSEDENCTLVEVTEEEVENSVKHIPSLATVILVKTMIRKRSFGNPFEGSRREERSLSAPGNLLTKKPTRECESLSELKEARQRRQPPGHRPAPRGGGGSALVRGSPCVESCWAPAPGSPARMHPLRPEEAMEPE
UniProt Q9P1Z2: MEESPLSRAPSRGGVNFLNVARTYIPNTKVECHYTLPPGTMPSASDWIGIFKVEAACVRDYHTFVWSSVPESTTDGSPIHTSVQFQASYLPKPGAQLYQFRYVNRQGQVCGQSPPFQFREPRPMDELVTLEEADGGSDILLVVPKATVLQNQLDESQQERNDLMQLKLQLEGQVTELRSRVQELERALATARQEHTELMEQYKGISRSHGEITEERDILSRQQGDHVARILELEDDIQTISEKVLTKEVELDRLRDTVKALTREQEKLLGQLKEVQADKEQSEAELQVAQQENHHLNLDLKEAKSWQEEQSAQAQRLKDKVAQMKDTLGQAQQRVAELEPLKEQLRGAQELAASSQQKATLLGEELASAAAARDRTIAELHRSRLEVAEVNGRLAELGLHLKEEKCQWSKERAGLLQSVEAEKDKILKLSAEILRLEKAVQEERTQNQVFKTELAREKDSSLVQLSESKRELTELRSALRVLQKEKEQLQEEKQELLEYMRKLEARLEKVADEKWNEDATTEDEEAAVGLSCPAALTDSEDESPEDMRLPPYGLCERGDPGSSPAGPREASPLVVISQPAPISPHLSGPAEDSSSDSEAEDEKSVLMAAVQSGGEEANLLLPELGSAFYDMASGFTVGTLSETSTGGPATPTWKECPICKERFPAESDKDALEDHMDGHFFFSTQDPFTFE
UniProt Q7Z4R8: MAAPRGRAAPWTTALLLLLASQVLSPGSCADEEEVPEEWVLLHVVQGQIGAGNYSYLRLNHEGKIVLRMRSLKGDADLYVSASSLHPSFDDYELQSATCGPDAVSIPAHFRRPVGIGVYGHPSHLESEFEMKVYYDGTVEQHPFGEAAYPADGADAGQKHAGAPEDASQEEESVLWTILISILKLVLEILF
UniProt Q9Y2V0: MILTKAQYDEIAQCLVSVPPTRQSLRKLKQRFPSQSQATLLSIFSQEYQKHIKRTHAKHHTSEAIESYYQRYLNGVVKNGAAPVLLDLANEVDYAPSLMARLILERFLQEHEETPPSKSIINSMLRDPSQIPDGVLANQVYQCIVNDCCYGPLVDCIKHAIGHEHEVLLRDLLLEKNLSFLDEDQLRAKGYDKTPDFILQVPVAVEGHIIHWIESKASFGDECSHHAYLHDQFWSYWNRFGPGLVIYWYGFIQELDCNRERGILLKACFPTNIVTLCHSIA

Key:
Experiment in all cases: log2 fold change, soluble protein after heating vs DMSO (PISA); higher = thermal stabilisation; K562 cells, 10 uM, 30 min; active = over 0.2 and 3.5 SD of the protein, either way, in both replicates (recomputed)
[1] = compound: CN1CCN(CCOc2cc(OC3CCOCC3)c3c(Nc4c(Cl)ccc5c4OCO5)ncnc3c2)CC1 [saracatinib]
Outline: (§1)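 K562 cells at 2×10^6 cells/mL were treated for 30 min with 10 μM compound, and aliquots were heated for 3 min over 48°C-58°C before pooling. Extraction used PBS with 0.5% NP-40 at 4°C, and soluble protein was the supernatant after 21,000xg for 90 min, measured by TMTpro 16plex LC-MS/MS with channel sums equalised. Thermal stability values, relative to control samples and from duplicates, are log2 fold changes.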

[2] = compound: CN1CCN(c2nc(C3=C(c4c[nH]c5ccccc45)C(=O)NC3=O)c3ccccc3n2)CC1 [sotrastaurin]
Outline: as §1

[3] = compound: CN1CC[C@H](c2c(O)cc(O)c3c(=O)cc(-c4ccccc4Cl)oc23)[C@H](O)C1 [alvocidib]
Outline: as §1

[4] = compound: CN1CCc2c(c3ccccc3n2Cc2ccc(C(=O)NO)cc2)C1 [Tubastatin A]
Outline: as §1

[5] = compound: CNC(=O)C1=CC=CC=C1NC2=NC(=NC=C2Cl)NC3=C(C=C(C=C3)N4CCOCC4)OC
Outline: as §1

[6] = compound: CNC(=O)c1ccc(Nc2ncc(C(F)(F)F)c(NCc3nccnc3N(C)S(C)(=O)=O)n2)cc1 [defactinib]
Outline: as §1

[7] = compound: CNc1nc(-c2ccc3c(N)n[nH]c3c2)cc(N2C[C@@H](C(=O)NC3CCCCC3)CC[C@H]2C)n1
Outline: as §1

[8] = compound: COC(=O)[C@H](CCSC)NC(=O)C1=C(C=C(C=C1)NC[C@H](CS)N)C2=CC=CC=C2
Outline: as §1

[9] = compound: CNCc1ccc(-c2[nH]c3cc(F)cc4c3c2CCNC4=O)cc1 [rucaparib]
Outline: as §1

[10] = compound: COC(=O)N[C@@H](C)CNc1nccc(-c2cn(C(C)C)nc2-c2cc(Cl)cc(NS(C)(=O)=O)c2F)n1 [encorafenib]
Outline: as §1

Measured: log2 fold change

CA13 (UniProt Q8N1Q1)
inactive: [1] -0.004 | [2] -0.021 | [3] -0.178 | [4] 0.157 | [5] -0.081 | [6] -0.05 | [7] 0.005 | [8] -0.122

CAPN2 (UniProt P17655)
inactive: [1] 0.054 | [2] 0.029 | [3] -0.028 | [4] -0.002 | [5] -0.039 | [6] 0.008 | [9] -0.062 | [7] 0.014 | [10] -0.043 | [8] 0.033

C2CD2L (UniProt O14523)
inactive: [1] 0.027 | [2] 0.032 | [3] 0.006 | [4] -0.039 | [5] 0.083 | [6] -0.018 | [9] 0.059 | [7] -0.049 | [10] -0.004 | [8] 0.014

BUD13 (UniProt Q9BRD0)
inactive: [1] -0.025 | [2] -0.061 | [3] 0.034 | [4] 0.042 | [5] 0.046 | [6] -0.021 | [7] -0.056 | [8] 0.091

C11orf98 (UniProt E9PRG8)
inactive: [1] -0.018 | [2] 0.017 | [3] 0.314 | [4] 0.076 | [5] 0.052 | [6] 0.315 | [9] 0.253 | [7] 0.072 | [10] 0.115 | [8] 0.051

Two entries drawn at random from the list so far:
BUD13 (UniProt Q9BRD0)
inactive: [1] -0.025 | [2] -0.061 | [3] 0.034 | [4] 0.042 | [5] 0.046 | [6] -0.021 | [7] -0.056 | [8] 0.091

CAPN2 (UniProt P17655)
inactive: [1] 0.054 | [2] 0.029 | [3] -0.028 | [4] -0.002 | [5] -0.039 | [6] 0.008 | [9] -0.062 | [7] 0.014 | [10] -0.043 | [8] 0.033

Carrying on:

C2CD2 (UniProt Q9Y426)
inactive: [1] 0.016 | [2] 0.055 | [3] 0.177 | [4] 0.031 | [5] -0.124 | [6] -0.031 | [9] -0.012 | [7] -0.022 | [10] -0.005 | [8] 0.064

BTF3 (UniProt P20290)
inactive: [1] 0.085 | [2] 0.045 | [3] -0.022 | [4] 0 | [5] -0.032 | [6] 0.021 | [9] -0.012 | [7] -0.02 | [10] 0.008 | [8] 0.041

CACTIN isoform 2 (UniProt Q8WUQ7)
inactive: [1] -0.015 | [2] -0.041 | [3] 0.07 | [4] 0.034 | [5] -0.103 | [6] -0.066 | [9] 0.007 | [7] -0.007 | [10] 0.099 | [8] 0.004

C1orf122 (UniProt Q6ZSJ8)
inactive: [1] -0.153 | [2] -0.045 | [3] -0.191 | [4] 0.013 | [5] 0.054 | [6] -0.05 | [9] 0.023 | [7] -0.092 | [10] -0.064 | [8] 0.042

C1GALT1C1 (UniProt Q96EU7)
inactive: [1] 0.072 | [2] 0.02 | [3] -0.032 | [4] 0.033 | [5] 0.015 | [6] 0.13 | [9] 0.063 | [7] 0.014 | [10] 0.038 | [8] -0.21

C8orf33 isoform 2 (UniProt Q9H7E9)
inactive: [1] -0.059 | [2] -0.002 | [3] 0.39 | [4] 0.223 | [6] 0.488 | [9] 0.396 | [7] 0.073 | [10] 0.126 | [8] 0.013

C2orf49 (UniProt Q9BVC5)
inactive: [1] -0.172 | [2] -0.265 | [3] 0.04 | [4] 0.141 | [5] 0.103 | [6] 0.114 | [9] 0.13 | [7] 0.159 | [10] 0.089 | [8] -0.077

C17orf75 (UniProt Q9HAS0)
inactive: [1] 0.035 | [2] 0.039 | [3] -0.027 | [4] -0.009 | [5] -0.055 | [6] -0.033 | [9] -0.006 | [7] -0.01 | [10] 0.026 | [8] 0.033

CAPN1 (UniProt P07384)
inactive: [1] 0.077 | [2] 0.019 | [3] -0.026 | [4] -0.035 | [5] -0.048 | [6] 0.003 | [9] -0.054 | [7] -0.008 | [10] -0.027 | [8] 0.01

C9orf85 isoform 1 (UniProt Q96MD7)
inactive: [1] 0.019 | [2] -0.061 | [3] -0.084 | [4] 0.067 | [5] -0.098 | [6] -0.022 | [7] 0.134 | [8] 0.019

CAPZA1 (UniProt P52907)
inactive: [1] 0.027 | [2] 0.013 | [3] -0.017 | [4] 0 | [5] -0.013 | [6] -0.025 | [9] -0.028 | [7] -0.013 | [10] -0.004 | [8] -0.006

C11orf68 (UniProt Q9H3H3)
inactive: [1] 0.007 | [2] -0.002 | [3] -0.115 | [4] -0.008 | [5] -0.018 | [6] -0.088 | [9] -0.013 | [7] 0.013 | [10] -0.031 | [8] 0.006

C6orf47 (UniProt O95873)
inactive: [1] 0.039 | [2] 0.06 | [3] 0.024 | [4] -0.001 | [5] 0.023 | [6] 0.074 | [9] 0.038 | [7] 0.011 | [10] -0.054 | [8] -0.002

CARHSP1 (UniProt Q9Y2V2)
inactive: [1] 0.019 | [2] -0.046 | [3] -0.003 | [4] -0.003 | [5] 0.006 | [6] 0.022 | [9] -0.018 | [7] 0.004 | [10] -0.035 | [8] 0.022

CAMKK2 (UniProt Q96RR4)
inactive: [1] 0.03 | [2] -0.042 | [4] 0.105 | [5] 0.36 | [6] -0.104 | [9] -0.084 | [7] -0.101 | [10] 0.057 | [8] 0.057

CALCOCO1 (UniProt Q9P1Z2)
inactive: [1] 0.025 | [3] -0.047 | [4] 0.008 | [5] -0.006 | [6] -0.062 | [9] 0.004 | [7] -0.003 | [10] -0.067 | [8] 0.013

CALCOCO2 isoform 4 (UniProt Q13137)
inactive: [1] -0.03 | [2] -0.127 | [4] 0.037 | [5] 0.012 | [6] 0.017 | [9] -0.044 | [7] -0.034 | [10] 0.076 | [8] 0.021

C6orf120 (UniProt Q7Z4R8)
inactive: [1] -0.097 | [2] 0.008 | [4] 0.041 | [5] -0.145 | [6] 0.024 | [9] 0.127 | [7] 0.041 | [10] 0.074 | [8] -0.045

C19orf54 (UniProt Q5BKX5)
inactive: [1] 0.049 | [2] -0.221 | [4] 0.092 | [5] 0.002 | [6] -0.136 | [9] 0.255 | [7] -0.108 | [10] 0.005 | [8] -0.031

C15orf41 (UniProt Q9Y2V0)
inactive: [1] 0.009 | [2] 0.042 | [4] 0.011 | [5] -0.137 | [6] -0.008 | [9] 0.081 | [7] -0.017 | [10] 0.01 | [8] 0.079

C19orf53 (UniProt Q9UNZ5)
inactive: [1] -0.069 | [2] -0.03 | [4] 0.129 | [5] 0.155 | [6] 0.296 | [9] 0.257 | [7] 0.053 | [10] 0.136 | [8] 0.036

C9orf64 (UniProt Q5T6V5)
inactive: [1] -0.053 | [2] -0.124 | [4] 0.036 | [5] -0.04 | [6] -0.067 | [7] -0.018 | [10] 0.047 | [8] 0.016
active: [9] 0.377
